At least one compound was matched to its structure with a doubt left.
What was measured:
FTO [1] = target: T1, FTO (Mus musculus, UniProt Q8BGW1); assay: 2-oxoglutarate decarboxylation (uncoupled 2-OG turnover) assay with purified FTO; type: biochemical
T1 construct: His tag (pET-28a) with peptide linker (N); made in house; host or cells: E. coli BL21-Gold(DE3)
Experimental: FTO was incubated with all necessary cofactors, in various buffers lacking a specific reagent (Fe^2+, ascorbate or DTT) and in the presence of N-oxalyl-glycine (NOG), a generic Fe^2+-2OG-dioxygenase inhibitor at a concentration of 0.5 mM. In addition to Fe^2+ (added in the form of (NH4)2Fe(II)(SO4)2) and 2OG, dithiothreitol (DTT) and sodium ascorbate were added to the reaction mixture: DTT is a reducing agent that helps to maintain Fe^2+.
These were diluted to a total volume of 100 μl with 50 mM TRIS, pH 7.5. All reagents were mixed and pipetted into a 5 ml plastic screw cap tube, the FTO was added to the tube as a separate drop. A 500 μl Eppendorf tube containing 200 μl Hyamine hydroxide (Fisher Scientific, CO2 trapping agent) was added to each tube and tubes were closed with a rubber septum. After incubation in an environmental shaker at 37° C. for half an hour, 200 μl methanol was added to the contents and the tubes were put on ice for 30 minutes to quench the reaction. The Eppendorf tubes containing the hyamine hydroxide were transferred to scintillation vials, mixed with 5 ml OptiPhase Liquid Scintillation Cocktail (Fisher Scientific) and total ^14C counts quantified using a Beckman L56500 Multi-Purpose Scintillation Counter.

Chains of the proteins cited; added tags and fusions are not shown.
UniProt Q8BGW1, whole entry: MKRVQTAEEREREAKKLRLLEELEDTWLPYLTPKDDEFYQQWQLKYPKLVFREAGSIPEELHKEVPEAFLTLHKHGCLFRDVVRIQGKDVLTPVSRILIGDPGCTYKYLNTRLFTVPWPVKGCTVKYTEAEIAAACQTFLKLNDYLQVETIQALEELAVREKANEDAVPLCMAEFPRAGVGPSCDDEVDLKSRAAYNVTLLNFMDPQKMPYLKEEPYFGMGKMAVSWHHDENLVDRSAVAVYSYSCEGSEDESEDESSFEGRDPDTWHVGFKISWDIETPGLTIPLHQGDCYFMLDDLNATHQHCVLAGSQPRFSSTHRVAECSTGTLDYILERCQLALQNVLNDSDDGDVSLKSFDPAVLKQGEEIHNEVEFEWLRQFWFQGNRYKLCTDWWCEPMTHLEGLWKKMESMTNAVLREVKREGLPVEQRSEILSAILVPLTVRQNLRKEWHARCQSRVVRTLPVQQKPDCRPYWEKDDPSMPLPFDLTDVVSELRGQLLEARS

FTO [2] = target: T1, FTO; assay: LC-MS assay directly monitoring DNA demethylation; type: biochemical; details: 3-meT ss-DNA substrate

SMILES: O=C1O[C@H]([C@@H](O)CO)C(O)=C1O [ascorbate]
- Stimulation of FTO 2-OG turnover activity (FTO [1]): stimulated
- Stimulation of FTO DNA demethylation (FTO [2]): stimulated
